Results taken from article doi:10.1101/469684.
Results are given in words; binding and its absence hold for the method and conditions named. Binding seen in cells or lysates may run through a third protein. Some results given as binding are weak or reduced against the parent protein; the word gives no strength. Sequences can lack the tags named with a protein.

Target: T1, TFF2-Fc (Trefoil factor 2 fused to Fc) (UniProt Q03404)
T1 sequence: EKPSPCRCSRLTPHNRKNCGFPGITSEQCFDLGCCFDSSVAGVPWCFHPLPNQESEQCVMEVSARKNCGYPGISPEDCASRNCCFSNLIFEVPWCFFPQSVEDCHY
Assay: co-IP

B1: Flag-tagged murine LINGO3 (leucine rich repeat and immunoglobulin like domain containing nogo receptor interacting protein 3) (receptor, UniProt Q6GQU6 24-589)
chain: CPARCECSASTRTVACGRRRLTAIPEGIPAETRMLELSRNRIRCLNPGDLASLPTLEELDLNHNVIAHVEPGAFANLPRLRVLRLRGNQLKLIPPGVFTHLDSLTLLDLSENKLVILLDFSFQDLRSLQRLEVGDNDLVFISRRAFAGLLGLAELTLERCNLTSLSPESLGHLRGLGALRLRHLAIAALEDQNFQKLPGLSHLEIDNWPLLEEVAPGSLRGLNLTSLSITHTNITAVPAAALRQQAHLTCLNLSHNPISMVPRGSFRDLVRLRELHLAGALLAVIEPQAFVGLRQIRLLNLSDNLLSTLEENTFHSVNTLETLRVDGNPLACDCRLLWIVQRRKTLNFDGRLPACATPAEVRGDALHNLPDSVLFEYFVCRKPKIRERRLQHVTATEGDDVRFLCRAEGEPAPTVAWVTPQHHSVTAASRGRARVLPGGTLTIADTRPQDSGTYTCVASNAGGNDTYFATLTVQPAANRTQGDGHNETQVGVRFPLDLTTILVSTAMGCITFLGVVLFCFLLLFVWSRGRGQHKNNFSVEYSFRKVDGPAAAAGQGGARKFNMKMI
Q: How did the binding turn out when B1 was run?
A: binds
